From the supplement of paper PMC12067093, “Discovery and optimisation of a covalent ligand for TRIM25 and its application to targeted protein ubiquitination” (Chemical Science, 2025)
The list shows a part of the results.

Compound: Cc1cc(ccc1-c1ccccc1)C(=O)N1CCCN(CC1)C(=O)CCl [compound 10]
Experiment: probe-labelled cysteine peptide fold change vs DMSO (competition) (log2 fold change); higher = less target engagement (more negative = stronger competition)
Conditions: THP-1, incubation time: 4 h
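Also: competitive profiling in live THP-1 cells: cysteine peptides tagged with an iodoacetamide desthiobiotin (IA-DTB) probe, intensity after compound treatment relative to DMSO-treated cells.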

Target	probe-labelled cysteine peptide fold change (10 µM)	probe-labelled cysteine peptide fold change (50 µM)
EPC1_Q9H2F5_22_CEDLPDLHEYASINR (UniProt Q9H2F5)	-0.204	-0.164
ELAVL1_Q15717_13_SNGYEDHMAEDCRGDIGR (UniProt Q15717)	0.257	0.232
ENY2_Q9NPA8_40_LIECGWK (UniProt Q9NPA8)	0.0115	0.0468
EIF4A1_P60842_134_VVMALGDYMGASCHACIGGTNVR (UniProt P60842)	0.122	0.172
EIF4G2_P78344_253_DMGEDLECLCQIMR (UniProt P78344)	0.0454	-0.0142
EIF5A2_Q9GZV4_22_ADEIDFTTGDAGASSTYPMQCSALRK (UniProt Q9GZV4)	-0.0868	-0.294
EIF3I_Q13347_76_HVLTGSADNSCR (UniProt Q13347)	-0.0836	-0.128
EP300_Q09472_364_QCNLPHCR (UniProt Q09472)	0.248	0.155
EMG1_Q92979_66_TYELLNCDK (UniProt Q92979)	-0.0743	-0.116
EML4_Q9HC35_368_GVGCLDFSK (UniProt Q9HC35)	-0.0767	0.0607
EIF4A1_P60842_131+134_VVMALGDYMGASCHACIGGTNVR (UniProt P60842)	0.402	-0.161
EPRS_P07814_1076_KLGVENCYFPMFVSQSALEK (UniProt P07814)	0.288	0.373
ELL_P55199_595_CEYLHSK (UniProt P55199)	0.21	0.12
EIF5B_O60841_635_LRAPIICVLGHVDTGK (UniProt O60841)	-0.0617	0.0478
ELAC1_Q9H777_266_LCFEADLLIHEATLDDAQMDK (UniProt Q9H777)	0.0528	-0.0432
ENOPH1_Q9UHY7_52_EYLQTHWEEEECQQDVSLLR (UniProt Q9UHY7)	0.0256	0.239
EPRS_P07814_680_RGFFICDQPYEPVSPYSCK (UniProt P07814)	-0.111	-0.437
EMC1_Q8N766_338_TVAAVMACR (UniProt Q8N766)	-0.00518	0.175
EPRS_P07814_744_ERPTPSLNNNCTTSEDSLVLYNR (UniProt P07814)	-0.104	-0.0423
EPRS_P07814_1076_LGVENCYFPMFVSQSALEK (UniProt P07814)	0.0262	0.245
EIF3F_O00303_134_HSVEVTNCFSVPHNESEDEVAVDMEFAK (UniProt O00303)	-0.124	0.132
EIF4G2_P78344_97_LCLELLNVGVESK (UniProt P78344)	-0.41	0.409
ENG_P17813_549_TGTLSCTVALRPK (UniProt P17813)	-0.142	-0.0378
ENGASE_Q8NFI3_113_LEDGFNVALEPLACR (UniProt Q8NFI3)	-0.0961	-0.0816
ELANE_P08246_151_LGNGVQCLAMGWGLLGR (UniProt P08246)	-0.368	-0.481

Some of the entries so far, field by field.
EIF4A1_P60842_131+134_VVMALGDYMGASCHACIGGTNVR (UniProt P60842)
  probe-labelled cysteine peptide fold change (10 µM) = 0.402; probe-labelled cysteine peptide fold change (50 µM) = -0.161
EPRS_P07814_1076_KLGVENCYFPMFVSQSALEK (UniProt P07814)
  probe-labelled cysteine peptide fold change (10 µM) = 0.288; probe-labelled cysteine peptide fold change (50 µM) = 0.373
ELL_P55199_595_CEYLHSK (UniProt P55199)
  probe-labelled cysteine peptide fold change (10 µM) = 0.21; probe-labelled cysteine peptide fold change (50 µM) = 0.12

Additional entries.

Target	probe-labelled cysteine peptide fold change (10 µM)	probe-labelled cysteine peptide fold change (50 µM)
EPRS_P07814_623_VTWLAETTHALPIPVICVTYEHLITKPVLGKDEDFK (UniProt P07814)	0.125	-0.203
ELAC2_Q9BQ52_670_VVYSGDTMPCEALVR (UniProt Q9BQ52)	-0.257	-0.582
EIF4G3_O43432_1411_LDFIESDSPCSSEALSK (UniProt O43432)	-0.128	-0.0326
ENO1_P06733_339_SCNCLLLK (UniProt P06733)	0.149	0.0192
EP300_Q09472_1250_RKNDTLDPELFVECTECGR (UniProt Q09472)	-0.101	0.125
EP300_Q09472_382_NVLNHMTHCQSGK (UniProt Q09472)	0.0586	-0.117
EPHX2_P34913_71_GEITLSQWIPLMEENCR (UniProt P34913)	0.288	0.305
EPC2_Q52LR7_626_AQGSSTSDCMSK (UniProt Q52LR7)	-0.169	-0.264
ERCC3_P19447_390_MWSTIDDSQICR (UniProt P19447)	-0.145	-0.298
ELP1_O95163_836_YCLSILTSHVK (UniProt O95163)	-0.0463	-0.249
ELP1_O95163_820_IDLVCDAMR (UniProt O95163)	0.102	0.301
ELP3_Q9H9T3_456_CSEETFR (UniProt Q9H9T3)	0.0674	0.137
EIF5B_O60841_1158_KGQEVCVK (UniProt O60841)	0.0629	0.0487
EMC2_Q15006_192_AAFCLEELMMTNPHNHLYCQQYAEVK (UniProt Q15006)	0.0886	0.0397
ELMO1_Q92556_438_VGELPSETCNDFHPMFFTHDR (UniProt Q92556)	0.319	0.338
EIF4G3_O43432_928+930_NHDEESLECLCR (UniProt O43432)	0.176	-0.343
EMG1_Q92979_134_FCGLMVQLLHK (UniProt Q92979)	0.0226	0.308
EIPR1_Q53HC9_83_GVLTTCYNR (UniProt Q53HC9)	0.00147	-0.249
ELP2_Q6IA86_769_KTDQVPEINDWTHCVETSQSQSHTLAIR (UniProt Q6IA86)	-0.00759	0.172
ELP1_O95163_23_DIQGPGNPQCFSLR (UniProt O95163)	0.145	-0.213
EIF5_P55010_99_FVLCPECENPETDLHVNPK (UniProt P55010)	0.145	-0.191
ENOX2_Q16206_216_DDLYEWECK (UniProt Q16206)	0.0581	-0.237
EPRS_P07814_1301+1309_VACVQVVIIPCGITNALSEEDK (UniProt P07814)	0.0144	0.011
ELF2_Q15723_110_TIEAAEALLHMESPTCLR (UniProt Q15723)	-0.353	-0.495
ELOB_Q15370_89_ADDTFEALCIEPFSSPPELPDVMK (UniProt Q15370)	-0.137	0.317

Target	probe-labelled cysteine peptide fold change (10 µM)	probe-labelled cysteine peptide fold change (50 µM)
EIF4A2_Q14240_132_VILALGDYMGATCHACIGGTNVR (UniProt Q14240)	-0.0101	0.207
EPB41L2_O43491_248_VCEHLNLLEK (UniProt O43491)	0.164	0.142
ELP2_Q6IA86_675_IIWSCDWSPDSK (UniProt Q6IA86)	0.255	0.285
EP300_Q09472_1621_LIAGPAANSLPPIVDPDPLIPCDLMDGR (UniProt Q09472)	0.815	0.109
EP300_Q09472_1275_MHQICVLHHEIIWPAGFVCDGCLK (UniProt Q09472)	-0.0309	0.13
EPRS_P07814_623_VTWLAETTHALPIPVICVTYEHLITK (UniProt P07814)	0.226	0.502
EIF4G3_O43432_301_CELSSPR (UniProt O43432)	-0.377	-0.35
EML2_O95834_301_ITQAVLGAHDGGVFGLCALR (UniProt O95834)	-0.0221	0.0215
EIF5B_O60841_749_CPFIVALNK (UniProt O60841)	0.0355	0.299
ENG_P17813_207_GCHLEGVAGHK (UniProt P17813)	0.0518	0.162
EIPR1_Q53HC9_198_WSPHHNCTQVATANDTTLR (UniProt Q53HC9)	-0.11	-0.389
EPHX2_P34913_154_MHFDFLIESCQVGMVKPEPQIYK (UniProt P34913)	-0.316	-0.0625
EMC1_Q8N766_587_TTAHFPHPPQCTLLVK (UniProt Q8N766)	0.14	-0.00966
EPRS_P07814_660_HEELMLGDPCLK (UniProt P07814)	-0.0678	-0.063
ERCC1_P07992_274_EDLALCPGLGPQK (UniProt P07992)	-0.00478	-0.04
ERCC2_P18074_155_AQYQHDTSLPHCR (UniProt P18074)	0.0924	-0.0418
EMC9_Q9Y3B6_177_AHQHLVDFDCHLDDIR (UniProt Q9Y3B6)	0.0368	0.244
EPRS_P07814_660_NSKHEELMLGDPCLK (UniProt P07814)	-0.334	-1.37
EIF3M_Q7L2H7_52_GAEISEENSEGGLHVDLAQIIEACDVCLK (UniProt Q7L2H7)	0.176	0.287
ELF2_Q15723_470_IITIPATQLAQCQLQTK (UniProt Q15723)	-0.231	-0.635
EIF4G1_Q04637_821_CLMALK (UniProt Q04637)	0.0226	0.0456
EIF4G2_P78344_282_MCSLMLSK (UniProt P78344)	0.175	-0.203
ERCC3_P19447_403_DKPIGCSVAISTYSMLGHTTK (UniProt P19447)	-0.099	-0.436
ELMO1_Q92556_411_EDKHECPFGR (UniProt Q92556)	-0.035	-0.282
ELP2_Q6IA86_14_VAPVLETSHVFCCPNR (UniProt Q6IA86)	-0.0763	-0.184
